Reference: article PMC4202153
Results are given in words; binding and its absence hold for the method and conditions named. Binding seen in cells or lysates may run through a third protein. A yes stands for co-enrichment or nearness to the bait. Other partners may have been found. Where a sequence is shown, tags or fusion partners need not be part of it.

Amino acid sequences for entries named in this document (tags omitted).
UniProt Q13547: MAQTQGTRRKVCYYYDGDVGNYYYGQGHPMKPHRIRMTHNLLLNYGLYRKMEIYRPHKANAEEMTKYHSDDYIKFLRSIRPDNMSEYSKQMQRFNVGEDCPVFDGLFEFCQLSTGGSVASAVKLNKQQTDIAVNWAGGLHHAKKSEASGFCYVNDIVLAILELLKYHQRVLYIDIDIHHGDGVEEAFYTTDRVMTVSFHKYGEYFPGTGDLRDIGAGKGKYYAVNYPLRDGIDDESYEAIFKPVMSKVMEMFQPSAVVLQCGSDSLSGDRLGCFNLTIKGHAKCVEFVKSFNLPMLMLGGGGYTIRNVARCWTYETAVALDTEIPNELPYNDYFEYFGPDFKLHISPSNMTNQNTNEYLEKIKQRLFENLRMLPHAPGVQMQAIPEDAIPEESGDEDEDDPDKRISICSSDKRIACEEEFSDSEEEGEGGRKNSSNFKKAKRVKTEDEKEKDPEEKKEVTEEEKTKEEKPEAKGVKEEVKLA
UniProt Q92769: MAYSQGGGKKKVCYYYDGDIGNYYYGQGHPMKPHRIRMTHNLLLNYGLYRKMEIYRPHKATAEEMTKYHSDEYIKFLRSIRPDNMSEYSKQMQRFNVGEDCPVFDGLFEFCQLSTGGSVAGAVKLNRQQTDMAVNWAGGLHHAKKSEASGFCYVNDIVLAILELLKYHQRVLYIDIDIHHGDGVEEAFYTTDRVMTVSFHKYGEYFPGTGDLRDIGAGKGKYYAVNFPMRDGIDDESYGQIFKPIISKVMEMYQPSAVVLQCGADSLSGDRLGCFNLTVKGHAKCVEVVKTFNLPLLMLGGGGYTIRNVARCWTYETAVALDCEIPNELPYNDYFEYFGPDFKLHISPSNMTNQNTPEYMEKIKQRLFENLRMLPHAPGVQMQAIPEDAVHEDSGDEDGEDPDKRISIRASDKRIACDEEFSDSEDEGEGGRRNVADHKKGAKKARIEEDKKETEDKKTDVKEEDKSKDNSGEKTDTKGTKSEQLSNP

Target: T1, TRPS1 (human (endogenous in the paper's human breast cell lines; line not named for this experiment)) (UniProt Q9UHF7)
T1 sequence: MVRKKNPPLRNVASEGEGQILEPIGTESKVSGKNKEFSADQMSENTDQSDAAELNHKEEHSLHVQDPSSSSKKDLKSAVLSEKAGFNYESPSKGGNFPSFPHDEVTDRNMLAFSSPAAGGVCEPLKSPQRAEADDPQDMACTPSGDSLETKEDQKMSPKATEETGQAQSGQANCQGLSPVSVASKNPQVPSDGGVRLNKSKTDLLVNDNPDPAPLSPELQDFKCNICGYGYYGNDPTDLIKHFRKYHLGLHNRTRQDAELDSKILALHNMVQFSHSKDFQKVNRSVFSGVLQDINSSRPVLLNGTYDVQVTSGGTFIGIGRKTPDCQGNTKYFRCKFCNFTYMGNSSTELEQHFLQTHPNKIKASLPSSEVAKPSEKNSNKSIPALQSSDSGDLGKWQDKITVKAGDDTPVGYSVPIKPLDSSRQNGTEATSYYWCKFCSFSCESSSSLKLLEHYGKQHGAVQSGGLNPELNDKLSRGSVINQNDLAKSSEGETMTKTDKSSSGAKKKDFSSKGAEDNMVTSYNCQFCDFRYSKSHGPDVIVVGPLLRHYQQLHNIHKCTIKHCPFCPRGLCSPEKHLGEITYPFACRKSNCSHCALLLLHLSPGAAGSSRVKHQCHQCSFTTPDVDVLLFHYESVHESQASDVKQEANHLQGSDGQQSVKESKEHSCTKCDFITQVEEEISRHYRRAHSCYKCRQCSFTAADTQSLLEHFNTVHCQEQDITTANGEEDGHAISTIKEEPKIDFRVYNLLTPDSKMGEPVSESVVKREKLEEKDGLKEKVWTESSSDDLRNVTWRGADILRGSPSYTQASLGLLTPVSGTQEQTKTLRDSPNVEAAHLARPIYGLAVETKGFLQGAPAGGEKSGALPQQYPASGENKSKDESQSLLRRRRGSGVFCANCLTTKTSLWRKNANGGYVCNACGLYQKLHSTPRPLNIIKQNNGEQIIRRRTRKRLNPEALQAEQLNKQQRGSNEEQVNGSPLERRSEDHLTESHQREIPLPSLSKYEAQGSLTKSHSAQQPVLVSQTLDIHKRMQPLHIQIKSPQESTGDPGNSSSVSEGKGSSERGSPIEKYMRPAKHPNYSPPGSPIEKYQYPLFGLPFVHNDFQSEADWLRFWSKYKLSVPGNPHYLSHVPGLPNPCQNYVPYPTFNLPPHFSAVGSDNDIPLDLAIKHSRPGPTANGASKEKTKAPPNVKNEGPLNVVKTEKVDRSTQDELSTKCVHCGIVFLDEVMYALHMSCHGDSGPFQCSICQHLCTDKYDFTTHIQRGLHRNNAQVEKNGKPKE
Test: affinity purification with mass spectrometry; immunoprecipitation with anti-TRPS1 antibody (R&D Systems) against control polyclonal IgG on Dynabeads Protein G; precipitated proteins analysed by MS

binding	Substance
binds	HDAC1 (from UniProt Q13547 1-482) (enzyme)
binds	HDAC2 (from UniProt Q92769 1-488) (enzyme)
